Assay results published in patent US20230094952A1, “Method for Culturing Hematopoietic Stem Cells” (Sumitomo Pharma Co., Ltd., priority 2019, published 2023).
At least one compound was matched to its structure with a doubt left.

System: mouse long-term hematopoietic stem cells
Experiment: Combination test with UM171 on mouse long-term hematopoietic stem cells
Format: cell-based
Settings: compared with any one of the substances alone
Method: The cells after classification were seeded in a 96-well plate. A cell culture medium was prepared by adding Stem Cell Factor (SCF, manufactured by PeproTech, Inc.) and Thrombopoietin (TPO, manufactured by PeproTech, Inc.) to StemSpan SFEM culture medium (manufactured by […] Technologies Inc.) and added in advance to a cell culture 96-well plate (manufactured by BD Biosciences) at 100 μL/well, and the cells sorted with the FACS Aria II cell sorter (BD Biosciences) were then seeded at 10 cells/well.
The test compounds each in the form of 10 mM DMSO solution were diluted with the cell culture medium to a final concentration of 1 μM, and added to the cells seeded after classification through medium exchange to a final volume of 200 μL/well. Thereafter, the cells were cultured in a CO2 incubator under conditions of 37° C. and 5% CO2 for 1 week.
After culture, the cells were stained with the antibodies for the surface markers c-Kit and Sca-1, Ter-119, B220, CD3, CD4, CD8a, Gr-1, and CD11b, and the ratio and post-growth cell count of a KLS fraction (c-Kit^+, Lin^−, Sca-1^+) or an mCherry-positive fraction given with use of a FACS Aria II cell sorter were analyzed by using FlowJo (BD Biosciences). […]

SMILES: CO[C@H]1O[C@@H]2O[C@@]3(C)CC[C@H]4[C@H](C)CC[C@@H]([C@H]1C)[C@@]24OO3 [Example 1-30, artemether, reference compound]
- Effect of culture with artemether and UM171 together on mCherry-positive and KLS-positive cell ratios: combinational effect
